The supplement of paper PMC10849652
The list shows a part of the results. Residues, ends and D or L forms follow the SMILES beside them. *: point of attachment. Cbz = O=C(OCc1ccccc1)*

Protein sequences, listed by entry. Tags and fused reporters are not part of them. Lines headed by an entry give the natural chain unless they say otherwise; changes in a name come on top.
UniProt Q9BT43: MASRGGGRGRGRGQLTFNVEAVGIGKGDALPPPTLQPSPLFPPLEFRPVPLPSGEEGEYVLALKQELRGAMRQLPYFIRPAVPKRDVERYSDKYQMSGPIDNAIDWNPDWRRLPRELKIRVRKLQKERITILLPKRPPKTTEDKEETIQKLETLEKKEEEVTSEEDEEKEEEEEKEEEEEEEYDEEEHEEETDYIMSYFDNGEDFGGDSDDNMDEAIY
UniProt O00469: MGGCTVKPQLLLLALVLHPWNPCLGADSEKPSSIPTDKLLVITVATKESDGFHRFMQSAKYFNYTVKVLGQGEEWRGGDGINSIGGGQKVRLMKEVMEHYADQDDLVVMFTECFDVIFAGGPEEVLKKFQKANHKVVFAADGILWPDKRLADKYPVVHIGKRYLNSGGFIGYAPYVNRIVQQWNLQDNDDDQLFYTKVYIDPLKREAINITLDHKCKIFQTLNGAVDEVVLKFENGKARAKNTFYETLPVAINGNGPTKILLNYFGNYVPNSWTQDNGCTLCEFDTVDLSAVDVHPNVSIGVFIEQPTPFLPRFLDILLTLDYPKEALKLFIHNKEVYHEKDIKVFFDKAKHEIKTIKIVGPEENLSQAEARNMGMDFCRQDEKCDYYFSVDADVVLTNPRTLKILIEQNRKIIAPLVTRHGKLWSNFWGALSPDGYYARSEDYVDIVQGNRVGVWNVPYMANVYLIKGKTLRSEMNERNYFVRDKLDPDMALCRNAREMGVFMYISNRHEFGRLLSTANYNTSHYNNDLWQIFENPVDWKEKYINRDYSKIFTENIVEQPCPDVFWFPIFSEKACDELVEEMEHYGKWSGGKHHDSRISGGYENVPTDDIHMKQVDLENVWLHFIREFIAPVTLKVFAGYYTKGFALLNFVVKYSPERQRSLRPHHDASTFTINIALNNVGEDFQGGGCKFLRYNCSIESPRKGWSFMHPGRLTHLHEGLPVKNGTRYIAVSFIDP
UniProt P56282: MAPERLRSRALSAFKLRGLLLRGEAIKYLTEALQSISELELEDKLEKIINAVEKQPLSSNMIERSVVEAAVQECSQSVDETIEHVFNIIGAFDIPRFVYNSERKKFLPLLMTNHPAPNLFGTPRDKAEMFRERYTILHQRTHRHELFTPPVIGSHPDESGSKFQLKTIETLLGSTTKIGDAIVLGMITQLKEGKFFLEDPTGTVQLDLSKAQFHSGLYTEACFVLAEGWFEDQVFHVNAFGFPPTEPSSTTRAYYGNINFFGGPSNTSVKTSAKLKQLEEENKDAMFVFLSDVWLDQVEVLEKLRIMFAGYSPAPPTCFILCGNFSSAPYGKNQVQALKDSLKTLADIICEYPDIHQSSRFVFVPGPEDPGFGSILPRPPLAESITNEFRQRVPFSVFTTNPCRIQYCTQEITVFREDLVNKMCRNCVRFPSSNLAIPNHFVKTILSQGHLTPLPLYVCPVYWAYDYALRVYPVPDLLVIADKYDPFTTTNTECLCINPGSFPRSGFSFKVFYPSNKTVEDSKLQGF
UniProt Q13427: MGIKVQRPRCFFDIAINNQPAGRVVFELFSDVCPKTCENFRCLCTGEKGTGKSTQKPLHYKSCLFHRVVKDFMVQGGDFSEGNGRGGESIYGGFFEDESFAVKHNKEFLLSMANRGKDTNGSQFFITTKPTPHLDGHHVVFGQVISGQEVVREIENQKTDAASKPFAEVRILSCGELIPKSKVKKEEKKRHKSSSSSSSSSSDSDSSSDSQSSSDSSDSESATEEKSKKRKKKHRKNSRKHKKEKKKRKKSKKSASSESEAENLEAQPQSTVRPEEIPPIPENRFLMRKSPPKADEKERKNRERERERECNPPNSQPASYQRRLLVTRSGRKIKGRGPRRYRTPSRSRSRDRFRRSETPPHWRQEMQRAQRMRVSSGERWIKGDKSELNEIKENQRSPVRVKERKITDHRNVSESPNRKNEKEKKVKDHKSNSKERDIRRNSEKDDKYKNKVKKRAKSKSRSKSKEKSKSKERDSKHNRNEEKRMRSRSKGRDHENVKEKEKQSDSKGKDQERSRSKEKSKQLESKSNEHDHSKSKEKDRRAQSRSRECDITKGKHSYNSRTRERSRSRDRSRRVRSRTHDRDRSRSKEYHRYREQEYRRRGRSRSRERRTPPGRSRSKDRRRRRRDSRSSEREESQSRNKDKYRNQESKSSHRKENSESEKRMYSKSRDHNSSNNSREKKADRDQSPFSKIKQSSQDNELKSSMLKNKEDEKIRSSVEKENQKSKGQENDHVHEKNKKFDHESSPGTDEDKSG
UniProt Q8NEY8: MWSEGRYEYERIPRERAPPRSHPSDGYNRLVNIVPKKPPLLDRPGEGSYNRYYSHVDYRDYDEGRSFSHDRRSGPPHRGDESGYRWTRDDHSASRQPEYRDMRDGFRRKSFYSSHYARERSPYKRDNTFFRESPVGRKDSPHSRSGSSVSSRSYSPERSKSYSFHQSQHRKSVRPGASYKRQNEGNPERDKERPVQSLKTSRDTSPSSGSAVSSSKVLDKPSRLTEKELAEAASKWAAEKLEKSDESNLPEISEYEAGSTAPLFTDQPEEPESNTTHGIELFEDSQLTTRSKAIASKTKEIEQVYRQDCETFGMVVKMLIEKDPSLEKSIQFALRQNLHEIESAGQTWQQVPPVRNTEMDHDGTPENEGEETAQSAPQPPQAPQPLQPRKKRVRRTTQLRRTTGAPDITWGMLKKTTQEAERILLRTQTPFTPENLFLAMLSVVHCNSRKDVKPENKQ
UniProt Q9HCU8: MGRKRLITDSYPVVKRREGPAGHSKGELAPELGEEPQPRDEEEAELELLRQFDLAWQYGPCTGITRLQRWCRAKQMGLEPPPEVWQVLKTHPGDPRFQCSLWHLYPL
UniProt Q9GZS1, whole entry, looked up: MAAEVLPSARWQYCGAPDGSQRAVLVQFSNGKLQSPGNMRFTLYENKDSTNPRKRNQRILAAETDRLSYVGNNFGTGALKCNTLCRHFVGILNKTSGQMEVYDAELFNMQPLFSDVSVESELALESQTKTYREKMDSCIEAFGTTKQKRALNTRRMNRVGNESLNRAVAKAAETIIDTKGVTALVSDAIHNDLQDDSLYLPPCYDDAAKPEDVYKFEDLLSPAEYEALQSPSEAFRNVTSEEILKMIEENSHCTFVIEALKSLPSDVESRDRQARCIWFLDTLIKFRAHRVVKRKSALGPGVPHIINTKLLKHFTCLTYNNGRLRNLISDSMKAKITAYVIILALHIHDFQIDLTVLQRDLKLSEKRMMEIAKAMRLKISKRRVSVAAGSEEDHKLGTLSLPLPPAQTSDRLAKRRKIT
UniProt P62937, whole entry, looked up: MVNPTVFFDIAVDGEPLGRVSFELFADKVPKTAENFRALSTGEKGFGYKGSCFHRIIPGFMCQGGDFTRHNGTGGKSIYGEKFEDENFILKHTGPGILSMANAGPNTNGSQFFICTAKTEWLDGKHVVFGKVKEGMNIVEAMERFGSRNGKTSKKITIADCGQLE
UniProt O75417: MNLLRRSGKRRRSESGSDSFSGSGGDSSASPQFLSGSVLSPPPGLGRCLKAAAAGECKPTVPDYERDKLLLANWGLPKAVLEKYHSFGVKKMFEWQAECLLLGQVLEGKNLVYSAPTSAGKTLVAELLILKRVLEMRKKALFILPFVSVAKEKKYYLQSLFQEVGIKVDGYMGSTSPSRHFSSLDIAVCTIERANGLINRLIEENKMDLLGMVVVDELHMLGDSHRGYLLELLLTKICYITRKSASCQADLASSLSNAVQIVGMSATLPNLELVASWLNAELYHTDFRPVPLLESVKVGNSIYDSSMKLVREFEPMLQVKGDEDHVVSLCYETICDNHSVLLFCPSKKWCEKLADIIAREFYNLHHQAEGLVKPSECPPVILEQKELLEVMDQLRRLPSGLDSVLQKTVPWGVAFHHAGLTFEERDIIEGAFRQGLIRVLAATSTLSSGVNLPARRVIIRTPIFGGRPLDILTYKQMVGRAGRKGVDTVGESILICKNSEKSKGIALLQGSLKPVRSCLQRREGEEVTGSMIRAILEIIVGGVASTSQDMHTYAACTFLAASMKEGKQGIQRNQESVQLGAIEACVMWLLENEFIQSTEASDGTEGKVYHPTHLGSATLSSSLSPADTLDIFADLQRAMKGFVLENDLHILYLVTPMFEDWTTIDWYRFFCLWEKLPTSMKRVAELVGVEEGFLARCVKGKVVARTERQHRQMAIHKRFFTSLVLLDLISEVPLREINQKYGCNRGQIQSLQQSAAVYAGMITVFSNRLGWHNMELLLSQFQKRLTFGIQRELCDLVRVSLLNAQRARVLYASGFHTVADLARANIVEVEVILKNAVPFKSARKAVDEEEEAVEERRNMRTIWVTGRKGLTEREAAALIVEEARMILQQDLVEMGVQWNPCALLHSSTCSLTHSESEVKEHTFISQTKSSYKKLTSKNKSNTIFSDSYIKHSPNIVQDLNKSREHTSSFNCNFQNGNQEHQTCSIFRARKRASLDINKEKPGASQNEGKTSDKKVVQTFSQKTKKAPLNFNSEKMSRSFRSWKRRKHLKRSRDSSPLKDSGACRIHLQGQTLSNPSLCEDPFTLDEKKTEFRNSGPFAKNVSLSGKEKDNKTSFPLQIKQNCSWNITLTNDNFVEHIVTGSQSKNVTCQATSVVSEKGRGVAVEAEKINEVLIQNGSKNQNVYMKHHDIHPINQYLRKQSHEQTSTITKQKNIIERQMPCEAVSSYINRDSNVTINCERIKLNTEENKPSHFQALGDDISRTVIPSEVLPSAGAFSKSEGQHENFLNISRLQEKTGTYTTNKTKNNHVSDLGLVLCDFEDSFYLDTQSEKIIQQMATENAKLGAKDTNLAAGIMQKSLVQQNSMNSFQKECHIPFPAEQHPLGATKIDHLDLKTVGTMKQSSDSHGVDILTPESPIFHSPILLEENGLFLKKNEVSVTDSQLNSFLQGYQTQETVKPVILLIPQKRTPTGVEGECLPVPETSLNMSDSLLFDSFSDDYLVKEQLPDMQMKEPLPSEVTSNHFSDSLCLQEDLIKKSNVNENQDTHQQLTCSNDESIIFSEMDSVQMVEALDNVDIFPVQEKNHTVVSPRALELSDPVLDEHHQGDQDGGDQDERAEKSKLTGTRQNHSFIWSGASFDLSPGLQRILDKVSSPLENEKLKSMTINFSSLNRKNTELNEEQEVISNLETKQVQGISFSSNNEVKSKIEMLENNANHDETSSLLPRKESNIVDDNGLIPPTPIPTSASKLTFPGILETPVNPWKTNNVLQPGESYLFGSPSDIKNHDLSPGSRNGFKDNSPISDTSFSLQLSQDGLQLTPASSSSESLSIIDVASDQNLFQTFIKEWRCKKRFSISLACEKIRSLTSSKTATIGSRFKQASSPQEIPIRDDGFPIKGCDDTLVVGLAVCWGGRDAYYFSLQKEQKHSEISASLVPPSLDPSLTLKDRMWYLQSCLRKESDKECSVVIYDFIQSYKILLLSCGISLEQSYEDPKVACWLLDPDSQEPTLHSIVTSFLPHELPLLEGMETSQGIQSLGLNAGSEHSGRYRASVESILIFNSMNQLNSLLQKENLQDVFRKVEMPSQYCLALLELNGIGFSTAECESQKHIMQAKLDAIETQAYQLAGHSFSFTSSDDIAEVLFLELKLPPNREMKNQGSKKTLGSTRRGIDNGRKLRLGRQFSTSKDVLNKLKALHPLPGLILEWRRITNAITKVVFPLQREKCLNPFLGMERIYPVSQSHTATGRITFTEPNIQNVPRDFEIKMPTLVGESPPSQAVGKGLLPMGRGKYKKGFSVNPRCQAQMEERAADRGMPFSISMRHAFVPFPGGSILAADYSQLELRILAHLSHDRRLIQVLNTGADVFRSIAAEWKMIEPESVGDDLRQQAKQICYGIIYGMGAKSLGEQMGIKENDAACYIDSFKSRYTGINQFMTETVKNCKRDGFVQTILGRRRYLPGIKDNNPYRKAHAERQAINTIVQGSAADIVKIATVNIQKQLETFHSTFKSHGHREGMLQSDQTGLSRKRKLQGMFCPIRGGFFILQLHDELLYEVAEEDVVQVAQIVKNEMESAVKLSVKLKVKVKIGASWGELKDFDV

Tests used:
Assay in all cases: log2 fold change, soluble protein after heating vs DMSO (PISA); higher = thermal stabilisation; K562 cells, 10 uM, 30 min; active = over 0.2 and 3.5 SD of the protein, either way, in both replicates (recomputed)
[1] = compound: C1=CC(=C(C=C1Cl)C2=NC3=NC=CN=C3C(=N2)NC4=CC=NC=C4)F
Outline: (§1)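 Soluble protein was defined as the supernatant after 21,000xg for 90 min. It came from K562 cells at 2×10^6 cells/mL given 10 μM compound for 30 min, heated in aliquots for 3 min across 48°C-58°C, pooled, and extracted in PBS with 0.5% NP-40 at 4°C, and was quantified by TMTpro 16plex LC-MS/MS with equalised channel sums. Thermal stability against control samples, from duplicates, is reported as log2 fold change.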

[2] = compound: C1COCCN1CCN2C3=CC=CC=C3N=C2NC(=O)C4=CC(=CC=C4)[N+](=O)[O-] [IRAK-1-4 Inhibitor I]
Outline: as §1

[3] = compound: CC(C)(O)CC(=O)NCCn1ccc2ncnc(Nc3ccc(Oc4cccc(C(F)(F)F)c4)c(Cl)c3)c21
Outline: as §1

[4] = compound: CC(C)N(C[C@H]1O[C@@H](n2cnc3c(N)ncnc32)[C@H](O)[C@@H]1O)[C@H]1C[C@@H](CCc2nc3cc(C(C)(C)C)ccc3[nH]2)C1 [pinometostat]
Outline: as §1

[5] = compound: C1=CC2=NC=CN=C2C=C1/C=C/3\C(=O)NC(=O)S3
Outline: as §1

[6] = compound: C=CC(=O)N1CCC[C@@H](n2nc(-c3ccc(Oc4ccccc4)cc3)c3c(N)ncnc32)C1 [ibrutinib]
Outline: as §1

[7] = compound: C#Cc1cccc(Nc2ncnc3cc(OCCOC)c(OCCOC)cc23)c1 [erlotinib]
Outline: as §1

[8] = compound: C1=CC(=CC=C1C2=NC3=C(N2)C=C(C=C3)C(=O)N)OC4=CC=C(C=C4)Cl
Outline: as §1

[9] = compound: C1=CC=C(C=C1)C2=NC(=C(N2)C3=CC=NC=C3)C4=CC(=C(C=C4)Cl)O
Outline: as §1

[10] = compound: C1CCN(C1)C(=O)NC2=CC=CC(=C2)NC3=NC=C(C(=N3)NCCC4=CN=CN4)Br
Outline: as §1

[11] = compound: C1CN(CCC1(CC2=CC=C(C=C2)Cl)N)C3=NC=NC4=C3C=CN4
Outline: as §1

[12] = compound: CC(C)(C)Cn1c(N)nc2ccc(-c3[nH]c(C(C)(C)C)nc3-c3ccc(F)cc3)nc21 [ralimetinib]
Outline: as §1

[13] = compound: CC(C)C1=C2N=C(C=C(N2N=C1)NCC3=CC=CC=C3)NCCCCCCN
Outline: as §1

[14] = compound: CC(C)C[C@@H](C=O)NC(=O)[C@H](CC(C)C)NC(=O)[C@H](CC(C)C)NC(=O)OCc1ccccc1
Outline: as §1

[15] = compound: CC1=C(C2=C(C=C1)C(=O)C3=CC=CC=C3N2CCCN)C
Outline: as §1

[16] = compound: C/C(=N\NC(=O)C1=CC(=CC=C1)S(=O)(=O)N2CCOCC2)/C3=C(C=CC(=C3)Cl)O
Outline: as §1

[17] = compound: C1=CC2=C(C=CC(=C2)/C=C\3/C(=O)NC(=NCC4=CC=CS4)S3)N=C1
Outline: as §1

[18] = compound: C1=CC=C2C(=C1)C3=NNC4=CC=CC(=C43)C2=O
Outline: as §1

[19] = compound: CC(=O)c1cnc2ccc(-c3cc(Cl)c(O)c(Cl)c3)nc2c1N[C@H]1CC[C@H](CN(C)C)CC1
Outline: as §1

[20] = compound: CC1=C(C(CC(=O)N1)C2=CC=C(C=C2)C(F)(F)F)C(=O)NC3=C(C=C4C(=C3)C=NN4)F
Outline: as §1

Measured: log2 fold change

PLS3 (UniProt H7C4N2)
inactive: [1] -0.366 | [2] -0.001 | [3] 0.066 | [4] 0.319

POLR3GL (UniProt Q9BT43)
inactive: [5] 0.152 | [6] -0.079

PPFIA3 (UniProt O75145)
inactive: [1] -0.01 | [3] -0.009

PM20D2 (UniProt Q8IYS1)
inactive: [7] 0.08 | [8] 0.12 | [9] 0.056 | [10] -0.054 | [11] 0.269 | [12] 0.03 | [13] -0.277 | [14] 0.024 | [15] 0.168

PPM1B isoform 2 (UniProt O75688)
inactive: [5] -0.067 | [6] 0.017

PNKP (UniProt Q96T60)
inactive: [16] -0.067 | [17] 0.147 | [9] -0.03 | [18] -0.102 | [10] -0.225 | [11] 0.101 | [2] -0.045 | [19] -0.051 | [12] -0.066 | [14] 0.088 | [4] 0.043 | [15] 0.634

PLOD2 isoform 2 (UniProt O00469)
inactive: [2] -0.302 | [4] 0.05

POLE2 (UniProt P56282)
inactive: [9] -0.132 | [2] -0.019 | [12] 0.238 | [14] -0.075 | [4] 0.059

PLTP (UniProt P55058)
inactive: [7] -0.023 | [1] 0.049 | [8] 0.021 | [2] 0.213 | [3] 0.04 | [13] 0.129 | [4] 0.115 | [20] -0.059

POLRMT (UniProt O00411)
inactive: [1] -0.026 | [2] -0.046 | [3] 0.063 | [4] 0.034

POMT2 (UniProt Q9UKY4)
inactive: [16] -0.097 | [17] 0.07 | [5] -0.083 | [9] 0.103 | [18] -0.055 | [10] 0.112 | [11] 0.028 | [2] 0.003 | [6] 0.087 | [19] -0.029 | [12] -0.027 | [14] 0.044 | [4] 0.004 | [15] -0.105

PLEKHJ1 (UniProt Q9NW61)
inactive: [1] 0.079 | [9] -0.008 | [12] 0.009 | [3] 0.25 | [14] 0.165

2 records picked at random from the list so far, as already listed:
POMT2 (UniProt Q9UKY4)
inactive: [16] -0.097 | [17] 0.07 | [5] -0.083 | [9] 0.103 | [18] -0.055 | [10] 0.112 | [11] 0.028 | [2] 0.003 | [6] 0.087 | [19] -0.029 | [12] -0.027 | [14] 0.044 | [4] 0.004 | [15] -0.105

PLTP (UniProt P55058)
inactive: [7] -0.023 | [1] 0.049 | [8] 0.021 | [2] 0.213 | [3] 0.04 | [13] 0.129 | [4] 0.115 | [20] -0.059

Further entries

PPIG (UniProt Q13427)
inactive: [5] -0.259 | [9] 0.062 | [2] -0.386 | [6] 0.145 | [12] 0.064 | [14] 0.099 | [4] 0.182

POF1B isoform 1 (UniProt Q8WVV4)
inactive: [5] -0.451 | [10] -0.081 | [11] -0.196 | [6] 0.09 | [20] -0.063 | [15] 1.46

PPHLN1 (UniProt Q8NEY8)
inactive: [7] -0.06 | [8] 0.044 | [5] 0.065 | [9] -0.092 | [2] -0.003 | [6] 0.093 | [12] 0.033 | [13] 0.123 | [14] 0.174 | [4] -0.018

PLEKHO2 (UniProt Q8TD55)
inactive: [7] 0.007 | [8] 0.057 | [5] 0 | [9] 0.005 | [10] -0.005 | [11] 0.035 | [2] 0.12 | [6] -0.086 | [12] -0.078 | [13] -0.097 | [14] 0.08 | [4] 0.027 | [20] 0.066 | [15] 0.174

PLXNB1 (UniProt O43157)
inactive: [16] 0.034 | [1] 0.062 | [17] 0.056 | [18] -0.064 | [19] 0.03 | [3] 0.014

PLXNA3 (UniProt P51805)
inactive: [16] -0.403 | [1] 0.158 | [17] 0.019 | [5] -0.032 | [18] 0.242 | [10] -0.041 | [11] 0.02 | [2] -0.241 | [6] 0.144 | [19] 0.072 | [3] -0.142 | [4] 0.101 | [15] -0.007

POLD4 (UniProt Q9HCU8)
inactive: [16] -0.077 | [17] -0.066 | [5] 0.023 | [9] -0.045 | [18] -0.014 | [10] -0.032 | [11] 0.041 | [2] 0.065 | [6] 0.152 | [19] -0.045 | [12] -0.101 | [14] 0.352 | [4] 0 | [20] 0.104 | [15] 0.091

PLIN3 isoform 2 (UniProt O60664)
inactive: [16] -0.371 | [1] -0.357 | [17] 0.189 | [5] -0.193 | [18] -0.149 | [6] 0.175 | [19] -0.258 | [3] 0.018

PPHLN1 isoform 3 (UniProt Q8NEY8)
inactive: [10] 0.033 | [11] -0.082 | [15] 0.19

PLXND1 (UniProt Q9Y4D7)
inactive: [16] 0.364 | [17] 0.109 | [5] -0.38 | [9] 0.097 | [18] -0.104 | [2] 0.029 | [6] -0.274 | [19] -0.087 | [12] 0.144 | [14] -0.368 | [4] -0.033

POLR1E isoform 1 (UniProt Q9GZS1)
inactive: [16] 0.118 | [17] 0.096 | [9] -0.159 | [18] -0.168 | [19] -0.224 | [12] 0.006 | [14] 0.21

PPIP5K2 (UniProt H0Y9S9)
inactive: [1] 0.07 | [5] -0.068 | [9] -0.059 | [10] -0.275 | [11] 0.169 | [2] 0.131 | [6] -0.077 | [12] 0.034 | [3] -0.063 | [14] 0.346 | [4] -0.208 | [20] 0.121 | [15] 0.116

PPIA isoform 2 (UniProt P62937)
inactive: [16] -0.044 | [1] 0.154 | [17] 0.116 | [5] 0.136 | [9] -0.174 | [18] 0.048 | [10] 0.119 | [11] 0.082 | [6] -0.171 | [19] -0.095 | [12] -0.078 | [3] 0.057 | [14] -0.081 | [20] 0.191 | [15] 0.056

POLQ (UniProt O75417)
inactive: [5] 0.009 | [9] -0.134 | [6] -0.051 | [12] -0.071 | [14] -0.101 | [20] -0.126
